# Reference: the supplement of paper PMC7666118
# Chains of the proteins cited; added tags and fusions are not shown. Lines headed by an entry give the natural chain unless they say otherwise; changes in a name come on top.
# UniProt Q99447: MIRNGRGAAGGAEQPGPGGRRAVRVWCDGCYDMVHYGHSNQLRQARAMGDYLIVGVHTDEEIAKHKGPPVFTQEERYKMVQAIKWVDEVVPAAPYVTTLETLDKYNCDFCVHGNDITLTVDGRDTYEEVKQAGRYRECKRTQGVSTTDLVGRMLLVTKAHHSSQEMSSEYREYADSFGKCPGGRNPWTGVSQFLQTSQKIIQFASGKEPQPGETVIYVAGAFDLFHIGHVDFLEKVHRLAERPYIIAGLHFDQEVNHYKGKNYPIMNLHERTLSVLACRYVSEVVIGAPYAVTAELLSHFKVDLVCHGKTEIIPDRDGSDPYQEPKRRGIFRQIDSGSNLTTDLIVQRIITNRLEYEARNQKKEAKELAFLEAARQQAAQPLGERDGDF
# UniProt Q9BUI4: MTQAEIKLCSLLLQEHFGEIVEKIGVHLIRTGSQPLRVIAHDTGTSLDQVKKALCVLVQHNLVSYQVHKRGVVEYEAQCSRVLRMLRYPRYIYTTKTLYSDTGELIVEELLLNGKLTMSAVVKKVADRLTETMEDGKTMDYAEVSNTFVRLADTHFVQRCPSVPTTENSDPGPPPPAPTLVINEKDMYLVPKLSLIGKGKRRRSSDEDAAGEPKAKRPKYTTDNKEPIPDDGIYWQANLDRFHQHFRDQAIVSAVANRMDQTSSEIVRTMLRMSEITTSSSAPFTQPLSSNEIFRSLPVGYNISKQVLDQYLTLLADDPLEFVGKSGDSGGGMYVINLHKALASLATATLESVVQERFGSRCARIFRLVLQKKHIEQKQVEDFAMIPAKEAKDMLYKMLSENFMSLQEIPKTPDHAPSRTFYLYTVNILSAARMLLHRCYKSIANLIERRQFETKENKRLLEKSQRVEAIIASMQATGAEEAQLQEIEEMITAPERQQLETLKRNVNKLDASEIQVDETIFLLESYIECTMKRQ
# UniProt P53350, whole entry: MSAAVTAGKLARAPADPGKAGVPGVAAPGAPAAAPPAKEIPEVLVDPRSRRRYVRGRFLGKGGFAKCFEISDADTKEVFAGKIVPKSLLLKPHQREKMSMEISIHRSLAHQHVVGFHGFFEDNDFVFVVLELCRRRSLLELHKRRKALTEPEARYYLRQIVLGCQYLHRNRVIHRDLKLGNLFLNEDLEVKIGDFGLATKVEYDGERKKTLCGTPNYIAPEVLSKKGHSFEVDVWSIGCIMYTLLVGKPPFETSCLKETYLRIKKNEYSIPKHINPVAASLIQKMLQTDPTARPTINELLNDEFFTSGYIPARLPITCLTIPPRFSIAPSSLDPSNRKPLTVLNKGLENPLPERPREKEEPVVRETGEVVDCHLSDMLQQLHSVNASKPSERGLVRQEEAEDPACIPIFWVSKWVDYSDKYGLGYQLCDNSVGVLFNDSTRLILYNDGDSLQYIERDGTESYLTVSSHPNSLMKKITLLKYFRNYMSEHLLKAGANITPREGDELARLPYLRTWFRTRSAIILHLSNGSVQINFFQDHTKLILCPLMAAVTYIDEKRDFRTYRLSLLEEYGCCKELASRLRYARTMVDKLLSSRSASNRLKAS
# UniProt P18669: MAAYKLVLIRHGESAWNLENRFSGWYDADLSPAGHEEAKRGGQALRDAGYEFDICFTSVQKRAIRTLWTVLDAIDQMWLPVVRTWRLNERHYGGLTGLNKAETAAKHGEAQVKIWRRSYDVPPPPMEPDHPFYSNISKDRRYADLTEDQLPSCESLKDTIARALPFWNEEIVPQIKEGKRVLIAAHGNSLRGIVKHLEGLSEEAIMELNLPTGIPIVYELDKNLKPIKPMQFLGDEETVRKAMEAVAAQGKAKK
# UniProt Q5VU43: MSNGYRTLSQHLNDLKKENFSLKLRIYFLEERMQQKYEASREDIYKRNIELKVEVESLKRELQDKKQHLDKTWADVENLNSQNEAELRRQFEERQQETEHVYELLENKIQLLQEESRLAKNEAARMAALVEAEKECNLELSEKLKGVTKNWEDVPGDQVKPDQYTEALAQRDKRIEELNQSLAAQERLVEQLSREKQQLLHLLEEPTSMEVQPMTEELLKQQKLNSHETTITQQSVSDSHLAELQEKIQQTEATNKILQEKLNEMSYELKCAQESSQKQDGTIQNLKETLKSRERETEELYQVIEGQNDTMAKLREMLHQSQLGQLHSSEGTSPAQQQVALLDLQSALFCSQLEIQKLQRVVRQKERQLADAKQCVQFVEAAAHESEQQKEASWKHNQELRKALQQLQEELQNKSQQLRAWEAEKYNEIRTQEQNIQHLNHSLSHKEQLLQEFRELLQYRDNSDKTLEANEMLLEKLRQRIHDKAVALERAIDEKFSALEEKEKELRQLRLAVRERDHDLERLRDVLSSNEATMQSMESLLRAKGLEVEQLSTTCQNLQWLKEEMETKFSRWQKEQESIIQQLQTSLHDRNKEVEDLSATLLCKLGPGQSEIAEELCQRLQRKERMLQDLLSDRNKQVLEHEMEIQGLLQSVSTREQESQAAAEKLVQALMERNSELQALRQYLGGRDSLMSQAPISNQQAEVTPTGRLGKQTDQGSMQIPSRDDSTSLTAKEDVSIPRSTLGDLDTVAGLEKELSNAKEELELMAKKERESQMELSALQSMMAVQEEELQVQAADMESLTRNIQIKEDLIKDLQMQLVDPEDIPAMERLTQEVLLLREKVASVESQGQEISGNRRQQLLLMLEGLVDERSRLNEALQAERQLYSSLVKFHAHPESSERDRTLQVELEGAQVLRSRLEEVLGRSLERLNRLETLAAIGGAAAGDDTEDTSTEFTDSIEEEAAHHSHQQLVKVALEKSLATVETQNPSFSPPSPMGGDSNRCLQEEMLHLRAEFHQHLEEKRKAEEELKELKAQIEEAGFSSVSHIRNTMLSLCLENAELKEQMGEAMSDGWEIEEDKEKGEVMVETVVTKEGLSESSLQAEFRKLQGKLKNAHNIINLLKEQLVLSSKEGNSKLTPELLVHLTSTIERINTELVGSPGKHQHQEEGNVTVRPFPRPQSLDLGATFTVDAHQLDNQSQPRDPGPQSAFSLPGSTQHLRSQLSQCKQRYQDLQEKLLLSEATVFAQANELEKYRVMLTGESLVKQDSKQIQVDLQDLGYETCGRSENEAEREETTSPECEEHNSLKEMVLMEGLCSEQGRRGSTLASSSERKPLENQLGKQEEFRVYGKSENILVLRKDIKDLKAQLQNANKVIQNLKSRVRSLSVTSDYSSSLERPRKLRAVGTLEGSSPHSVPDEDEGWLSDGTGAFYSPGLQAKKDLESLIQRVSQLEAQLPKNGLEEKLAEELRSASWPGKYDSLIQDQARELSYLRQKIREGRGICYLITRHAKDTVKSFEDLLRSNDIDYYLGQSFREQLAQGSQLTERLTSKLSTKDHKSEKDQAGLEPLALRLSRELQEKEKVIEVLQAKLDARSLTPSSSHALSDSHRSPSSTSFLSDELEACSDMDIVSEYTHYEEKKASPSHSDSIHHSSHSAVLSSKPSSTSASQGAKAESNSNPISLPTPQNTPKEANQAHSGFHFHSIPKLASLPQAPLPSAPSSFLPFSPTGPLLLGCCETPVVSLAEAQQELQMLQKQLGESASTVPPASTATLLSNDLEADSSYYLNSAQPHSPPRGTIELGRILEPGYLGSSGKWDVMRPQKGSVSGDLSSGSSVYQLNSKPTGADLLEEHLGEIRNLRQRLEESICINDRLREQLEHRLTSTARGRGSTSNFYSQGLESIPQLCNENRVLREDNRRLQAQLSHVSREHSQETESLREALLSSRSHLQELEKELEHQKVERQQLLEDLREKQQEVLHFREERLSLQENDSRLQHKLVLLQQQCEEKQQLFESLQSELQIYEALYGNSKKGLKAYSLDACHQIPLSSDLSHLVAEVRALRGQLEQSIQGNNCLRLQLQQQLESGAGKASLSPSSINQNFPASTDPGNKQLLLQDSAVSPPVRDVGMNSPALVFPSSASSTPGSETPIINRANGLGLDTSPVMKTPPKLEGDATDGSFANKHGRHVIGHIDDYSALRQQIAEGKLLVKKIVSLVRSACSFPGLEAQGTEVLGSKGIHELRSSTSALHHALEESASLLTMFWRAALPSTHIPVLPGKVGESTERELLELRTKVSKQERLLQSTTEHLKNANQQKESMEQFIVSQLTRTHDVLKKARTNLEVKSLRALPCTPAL
# UniProt Q8IZ21: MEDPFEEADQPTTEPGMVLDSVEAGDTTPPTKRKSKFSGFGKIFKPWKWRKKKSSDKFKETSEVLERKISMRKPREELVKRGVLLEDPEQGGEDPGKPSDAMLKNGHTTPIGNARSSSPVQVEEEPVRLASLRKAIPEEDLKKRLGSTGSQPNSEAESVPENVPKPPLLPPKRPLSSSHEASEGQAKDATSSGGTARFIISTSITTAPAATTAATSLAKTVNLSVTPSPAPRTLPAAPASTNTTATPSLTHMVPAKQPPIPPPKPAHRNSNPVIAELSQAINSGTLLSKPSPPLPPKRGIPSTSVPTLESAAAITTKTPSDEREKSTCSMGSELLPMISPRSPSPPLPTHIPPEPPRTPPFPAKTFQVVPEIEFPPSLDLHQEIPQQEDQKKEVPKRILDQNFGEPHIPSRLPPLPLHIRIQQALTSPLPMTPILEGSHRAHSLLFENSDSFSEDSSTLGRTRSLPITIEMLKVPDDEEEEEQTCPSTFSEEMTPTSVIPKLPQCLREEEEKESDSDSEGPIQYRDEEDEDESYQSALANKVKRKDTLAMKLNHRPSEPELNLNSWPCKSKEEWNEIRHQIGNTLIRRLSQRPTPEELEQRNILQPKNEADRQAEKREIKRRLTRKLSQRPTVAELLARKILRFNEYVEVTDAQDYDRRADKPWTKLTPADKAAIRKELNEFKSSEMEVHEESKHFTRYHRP
# UniProt O14737: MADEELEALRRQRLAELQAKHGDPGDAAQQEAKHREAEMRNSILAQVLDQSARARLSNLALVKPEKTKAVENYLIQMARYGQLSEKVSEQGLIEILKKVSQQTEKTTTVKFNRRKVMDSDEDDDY
# UniProt Q99575: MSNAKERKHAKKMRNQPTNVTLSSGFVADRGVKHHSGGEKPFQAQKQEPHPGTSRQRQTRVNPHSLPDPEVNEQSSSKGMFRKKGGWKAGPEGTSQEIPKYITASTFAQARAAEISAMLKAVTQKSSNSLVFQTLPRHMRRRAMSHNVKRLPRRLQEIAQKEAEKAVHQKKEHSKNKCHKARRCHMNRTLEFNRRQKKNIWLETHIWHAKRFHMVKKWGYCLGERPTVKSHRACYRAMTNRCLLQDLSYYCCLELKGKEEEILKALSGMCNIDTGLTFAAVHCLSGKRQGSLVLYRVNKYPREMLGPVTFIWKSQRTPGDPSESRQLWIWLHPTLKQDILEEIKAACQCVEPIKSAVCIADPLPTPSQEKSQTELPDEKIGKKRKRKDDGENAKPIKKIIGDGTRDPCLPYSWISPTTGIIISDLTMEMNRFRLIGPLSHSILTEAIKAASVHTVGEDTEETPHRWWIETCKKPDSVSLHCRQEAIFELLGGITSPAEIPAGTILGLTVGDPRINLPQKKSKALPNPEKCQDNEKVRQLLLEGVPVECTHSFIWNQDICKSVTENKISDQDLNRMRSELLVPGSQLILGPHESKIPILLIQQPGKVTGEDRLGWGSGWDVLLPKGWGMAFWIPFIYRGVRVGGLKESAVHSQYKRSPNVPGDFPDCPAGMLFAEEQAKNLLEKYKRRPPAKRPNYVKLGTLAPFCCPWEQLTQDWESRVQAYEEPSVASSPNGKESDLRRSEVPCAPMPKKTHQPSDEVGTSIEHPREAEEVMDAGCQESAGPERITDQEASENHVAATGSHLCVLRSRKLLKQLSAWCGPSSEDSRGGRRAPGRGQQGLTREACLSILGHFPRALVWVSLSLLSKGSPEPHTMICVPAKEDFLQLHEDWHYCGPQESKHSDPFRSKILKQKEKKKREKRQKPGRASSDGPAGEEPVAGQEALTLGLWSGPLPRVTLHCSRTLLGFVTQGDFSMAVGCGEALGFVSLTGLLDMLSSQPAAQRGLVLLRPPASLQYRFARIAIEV
# UniProt Q9BY77: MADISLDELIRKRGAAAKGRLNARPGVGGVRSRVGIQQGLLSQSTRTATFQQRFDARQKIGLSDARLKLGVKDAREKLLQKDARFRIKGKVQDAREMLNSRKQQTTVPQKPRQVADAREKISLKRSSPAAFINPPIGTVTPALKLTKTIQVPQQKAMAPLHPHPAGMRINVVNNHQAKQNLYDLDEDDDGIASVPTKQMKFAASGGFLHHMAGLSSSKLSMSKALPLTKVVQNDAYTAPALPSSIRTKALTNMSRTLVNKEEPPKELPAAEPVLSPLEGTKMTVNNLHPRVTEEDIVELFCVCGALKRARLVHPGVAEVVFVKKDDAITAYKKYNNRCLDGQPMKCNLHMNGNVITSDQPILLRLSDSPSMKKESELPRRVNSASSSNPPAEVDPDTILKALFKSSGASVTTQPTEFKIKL
# UniProt P07737, whole entry: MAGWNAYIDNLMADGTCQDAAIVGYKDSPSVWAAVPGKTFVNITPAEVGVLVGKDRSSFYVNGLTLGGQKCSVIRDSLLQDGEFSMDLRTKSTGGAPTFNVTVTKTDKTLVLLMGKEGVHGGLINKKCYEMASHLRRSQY
# The other results are listed elsewhere or left out.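 How the source made its calls: active = dose-dependent thermal stabilisation significant by F-test of dose-response against flat model at 10% FDR; inactive = not significant.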
# Compound: Nc1nc2c(ncn2[C@@H]2O[C@H](COP(=O)(O)OP(=O)(O)OP(=O)(O)O)[C@@H](O)[C@H]2O)c(=O)[nH]1
# Assay: dose-dependent thermal stabilisation call (2D-TPP, DLPTP, 10% FDR) (binary (1 = stabilised)); higher = stabilised by the compound
# Settings: system: Jurkat gel-filtered lysate; concentration range 1-500 µM
# Experimental: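 2D thermal proteome profiling in gel-filtered Jurkat E6.1 lysate (2 mg/ml) treated with NaGTP (0, 1, 10, 100, 500 uM) for 10 min at room temperature, then heated 3 min at one of 12 temperatures (42-63.9 C). Soluble protein was quantified by TMT10 MS. The value is the DLPTP call of the paper: dose-dependent thermal stabilisation over all temperatures at 10% FDR (F-test of a dose-response against a flat model); one experiment, one call per tested protein.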
row,Target,dose-dependent thermal stabilisation call
1,PPP6R2 (UniProt O75170),inactive: 0
2,PCYT2 (UniProt Q99447),active: 1
3,POLR2B (UniProt P30876),active: 1
4,PMF1 (UniProt Q6P1K2),inactive: 0
5,PHF6 (UniProt Q8IWS0),inactive: 0
6,PCM1 (UniProt Q15154),inactive: 0
7,PHF21A (UniProt Q96BD5),inactive: 0
8,POLR3C (UniProt Q9BUI4),inactive: 0
9,PLK1 (UniProt P53350),active: 1
10,PBX2 (UniProt P40425),inactive: 0
11,PGAM1 (UniProt P18669),active: 1
12,PEA15 (UniProt Q15121),inactive: 0
13,PMPCB (UniProt O75439),inactive: 0
14,PDE4DIP (UniProt Q5VU43),inactive: 0
15,PPA2 (UniProt Q9H2U2),inactive: 0
16,PPP1R10 (UniProt Q96QC0),inactive: 0
17,PHACTR4 (UniProt Q8IZ21),inactive: 0
18,PIH1D1 (UniProt Q9NWS0),inactive: 0
19,PRDX4 (UniProt Q13162),inactive: 0
20,PPP2CA (UniProt P67775),inactive: 0

# An excerpt of these results, as tab-separated lines:
row	Target	dose-dependent thermal stabilisation call
12	PEA15 (UniProt Q15121)	inactive: 0
16	PPP1R10 (UniProt Q96QC0)	inactive: 0

# More records follow.

row,Target,dose-dependent thermal stabilisation call
1,PDCL (UniProt Q13371),inactive: 0
2,PDCD5 (UniProt O14737),inactive: 0
3,PHKG2 (UniProt P15735),inactive: 0
4,PAXBP1 (UniProt Q9Y5B6),inactive: 0
5,POP1 (UniProt Q99575),inactive: 0
6,PPP1R12C (UniProt Q9BZL4),inactive: 0
7,PPP1CB (UniProt P62140),inactive: 0
8,PPP1R13L (UniProt Q8WUF5),inactive: 0
9,PPP1R18 (UniProt Q6NYC8),inactive: 0
10,PPT1 (UniProt P50897),active: 1
11,POLDIP3 (UniProt Q9BY77),inactive: 0
12,PPP1R12B (UniProt O60237),inactive: 0
13,PFN1 (UniProt P07737),active: 1
14,PLEC (UniProt Q15149),inactive: 0
15,PGK2 (UniProt P07205),active: 1
16,POLR2K (UniProt P53803),inactive: 0
17,PLS1 (UniProt Q14651),inactive: 0
18,POLR3G (UniProt O15318),inactive: 0
19,PGGHG (UniProt Q32M88),inactive: 0
20,PEBP1 (UniProt P30086),inactive: 0
